No constants are given. Whether binding was seen depends on the method and setting. For part of these data: Binding seen in cells or lysates may run through a third protein. Some results given as binding are weak or reduced against the parent protein; the word gives no strength. For part of these data: Sequences can lack the tags named with a protein.
Assays:
[1] = target: T1, Transmembrane and ubiquitin-like domain containing 1 (Tmub1), full-length, yeast two-hybrid bait (UniProt Q9JMG3); test: two-hybrid; screen of the Pretransformed Human Brain … cDNA library (pACT2) with full-length Tmub1 in pGBKT7 as bait, strain AH109; selection on plates with X-alpha-Gal lacking leucine, tryptophan and histidine
T1 sequence: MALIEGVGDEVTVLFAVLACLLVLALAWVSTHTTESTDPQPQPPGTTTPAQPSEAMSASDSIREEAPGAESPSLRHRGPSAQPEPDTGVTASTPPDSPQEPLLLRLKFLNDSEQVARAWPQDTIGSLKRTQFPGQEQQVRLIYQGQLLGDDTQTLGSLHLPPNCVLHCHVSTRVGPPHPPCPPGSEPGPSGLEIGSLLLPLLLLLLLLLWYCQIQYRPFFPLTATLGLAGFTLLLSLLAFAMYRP

By UniProt entry, the sequences of proteins in these tests, tags left out.
UniProt P49069: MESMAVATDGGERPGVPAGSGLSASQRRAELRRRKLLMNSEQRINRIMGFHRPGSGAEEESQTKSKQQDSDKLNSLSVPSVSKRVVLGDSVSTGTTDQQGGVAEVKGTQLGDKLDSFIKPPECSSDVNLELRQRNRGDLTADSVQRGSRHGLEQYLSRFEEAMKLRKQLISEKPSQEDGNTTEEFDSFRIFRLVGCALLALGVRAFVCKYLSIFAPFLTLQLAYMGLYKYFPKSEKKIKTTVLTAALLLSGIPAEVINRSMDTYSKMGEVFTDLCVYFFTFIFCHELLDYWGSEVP

[2] = target: T2, His-Tmub1 (6xHis at the N-terminus) (UniProt Q9JMG3); test: co-IP; His-tagged Tmub1 and FLAG-CAMLG co-expressed in HEK293; lysate in 20mM Tris pH8.0, 150mM NaCl, 1% Triton X-100, 1mM EDTA; captured by anti-His (affinity column), blotted with anti-Flag
T2 sequence: T1 sequence

[3] = target: T3, Tmub1-His (6xHis at the C-terminus) (UniProt Q9JMG3); test: as above
T3 sequence: T1 sequence

Row | Substance | binding [1] | binding [2] | binding [3]
1 | Calcium modulating cyclophilin ligand (CAMLG/CAML), full-length clone from the human brain cDNA library, yeast two-hybrid prey (from UniProt P49069 1-296) | binds | – | –
2 | FLAG-CAMLG (Flag tag at the N-terminus) (from UniProt P49069 1-296) | – | binds | binds
